Data from PubChem BioAssay AID504834 (National Center for Advancing Translational Sciences (NCATS), 2011).
Out of some 320,000 compounds screened, about 22,000 (6.9%) were called active. Inconclusive results, whose numbers are uncertain, are shown with a selection of clear calls. Calls follow the shape of the dose curve; as a rule, active = well fitted inhibition curve with a large enough effect; inconclusive = small, poorly fitted or top-dose-only effect, or another doubt; inactive = no such curve, though single readings can be large or run the other way. Potencies of inconclusive entries are doubtful fits and often do not repeat.

Test: Primary qHTS for delayed death inhibitors of the malarial parasite plastid, 96 hour incubation
Conditions: P. falciparum luciferase reporter growth; series mostly up to 28.7 µM
Procedure, shortened: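 Plates of compound plus infected erythrocytes (2% hematocrit, 0.05% parasitemia final) incubate 96 hours, 37 C, 5% CO2. Detection reagent added; reduced luminescence from the parasites' luciferase reporter flags inhibition.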
Potency is read from the fitted curve at half-maximal effect.

With `COc1cccc(-c2cc(C(=O)Nc3c(C)nn(Cc4ccccc4)c3C)no2)c1` as the molecule, how does the Potency read?
The Potency was inconclusive: 8.28 µM [inhibitor, partial curve].

Which Potency does the source give for `Cc1ccc(NC2CCCN(C(=O)c3ccc(C)c(N4CCNC4=O)c3)C2)cc1C` (configuration not stated) here?
Its Potency is “inactive”.

Which Potency does the source give for `Clc1nc2c(-c3ccccc3)nnn2c2ccccc12` here?
The Potency was “inactive”.

Which Potency does the source give for `CC(=O)O[C@H]1C[C@H](O[C@H]2[C@@H](O)CC(O[C@H]3[C@@H](O)C[C@H](O[C@H]4CC[C@@]5(C)[C@H](CC[C@@H]6[C@@H]5CC[C@]5(C)[C@@H](C7=CC(=O)OC7)CC[C@]65O)C4)O[C@@H]3C)O[C@@H]2C)O[C@H](C)[C@H]1O[C@@H]1O[C@H](CO)[C@@H](O)[C@H](O)[C@H]1O` (some centres not stated) here?
The Potency was active: 4.78 µM.

With `CCCc1nc2oc3c(=O)[nH]cnc3c2c2c1CCCC2` as the molecule, how does the Potency read?
The Potency was inconclusive: 10.4 µM [inhibitor, partial curve].

With `O=C(NC1CCCC1)C1CCN(c2nccs2)CC1` as the molecule, how does the Potency read?
Its Potency is inconclusive: 18.5 µM [inhibitor, single point].

Which Potency does the source give for `Cc1cc(C(=O)Nc2ccc(S(=O)(=O)N3CCCC3)cc2)no1` here?
Its Potency is inconclusive: 14.7 µM [inhibitor, partial curve, poor fit].

With `COC(=O)CCc1c(COC(C)=O)[nH]c(C(=O)OCc2ccccc2)c1C` as the molecule, how does the Potency read?
The Potency was inconclusive: 18.5 µM [inhibitor, single point].

With `CCOC(=O)CNC(=O)N1CCC(CCOc2ccccc2)(C(=O)OCC)CC1` as the molecule, how does the Potency read?
Its Potency is active: 8.28 µM.

With `CCCN(CCC)CC(O)COc1ccc([N+](=O)[O-])cc1` (configuration not stated) as the molecule, how does the Potency read?
Its Potency is active: 14.7 µM.

For `Cc1ccc(NC(=O)COc2ccc(Br)cc2CO)cc1`, which Potency is on record?
Its Potency is inconclusive: 4.15 µM [inhibitor, partial curve, poor fit].

Which Potency does the source give for `Cc1ccc(N(Cc2cc3ccc(C)cc3[nH]c2=O)C(=O)c2cccs2)cc1` here?
The Potency was inconclusive: 13.1 µM [inhibitor, partial curve, poor fit].

Which Potency does the source give for `CCOC(=O)CN1CC23C=CC(O2)C(C(=O)Nc2cc(OC)ccc2OC)C3C1=O` (configuration not stated) here?
Its Potency is inconclusive: 18.5 µM [inhibitor, single point].

With `CN(Cc1ccccc1Br)C(=O)CN1C(=O)NC2(CCCCCC2)C1=O` as the molecule, how does the Potency read?
The Potency was inconclusive: 16.5 µM [inhibitor, single point].

Which Potency does the source give for `Cc1ccc2nc(SCC(=O)Nc3cc(C(C)(C)C)nn3-c3ccccc3)[nH]c2c1` here?
The Potency was inconclusive: 18.5 µM [inhibitor, single point].

For `CCCCn1c(N)c(N(CCOC)C(=O)c2ccc(-c3cccc(C(F)(F)F)c3)o2)c(=O)[nH]c1=O`, which Potency is on record?
The Potency was active: 7.38 µM.

For `CN(CC(=O)Nc1ccccc1C(F)(F)F)C(=O)C1CCN(C(=O)c2ccc(Cl)cc2)CC1`, which Potency is on record?
The Potency was “inactive”.

For `CCN(CC)S(=O)(=O)c1ccc2c(c1)oc(=O)n2CC(=O)N(C)C1CCCCC1`, which Potency is on record?
The Potency was inconclusive: 18.5 µM [inhibitor, single point].

Which Potency does the source give for `CC(OC(=O)c1ccc(OCC2CCCO2)cc1)C(=O)N(C)Cc1ccccc1` (configuration not stated) here?
Its Potency is active: 4.65 µM.

Which Potency does the source give for `Cc1cccc(C)c1NC(=O)C1C2C=CC(C2)C1C(=O)O` (configuration not stated) here?
Its Potency is “inactive”.

Which Potency does the source give for `C/C(=N\NC(=O)C(C)Sc1ccccc1)C(C)(C)C` (configuration not stated) here?
Its Potency is “inactive”.

Which Potency does the source give for `Cc1cc(C)c(S(=O)(=O)c2ccccc2)c(N(C)C)n1` here?
The Potency was inconclusive: 1.85 µM [inhibitor, partial curve, poor fit].

Which Potency does the source give for `CN(C)c1ccc(NC(=O)CSc2nc3ccccc3c(=O)n2C2CCCCC2)cc1` here?
Its Potency is “inactive”.

Which Potency does the source give for `CCN1CCCC1CNC(=O)c1cc2c(=O)n(C)c3ccccc3c2n1C` (configuration not stated) here?
The Potency was inconclusive: 10.4 µM [inhibitor, partial curve, poor fit].

With `Cc1cc(C(F)(F)F)nc(NCc2cccnc2)n1` as the molecule, how does the Potency read?
The Potency was inconclusive: 13.1 µM [inhibitor, single point].

Which Potency does the source give for `COC(C/C=C\[C@@H](O)COCc1ccccc1)OC` here?
The Potency was “inactive”.

For `COC(=O)c1sc(NC(=O)c2ccc([N+](=O)[O-])o2)c(C#N)c1C`, which Potency is on record?
Its Potency is inconclusive: 11.7 µM [inhibitor, single point].

With `COc1ccc(N2CCN(C(=O)c3ccc(SC)cc3OC)CC2)cc1` as the molecule, how does the Potency read?
The Potency was “inactive”.

With `O=C(O)CCSc1nnc(COc2ccc(Cl)cc2)n1-c1ccccc1` as the molecule, how does the Potency read?
The Potency was inconclusive: 18.5 µM [inhibitor, single point].

For `O=C1N/C(=C/c2cccn2-c2ccc(F)cc2)C(=O)N1Cc1ccccc1`, which Potency is on record?
The Potency was inconclusive: 5.22 µM [inhibitor, partial curve].

Which Potency does the source give for `COCCN(C(=O)c1snc(C(N)=O)c1N)C(C(=O)NC1CCCC1)c1cc(OC)c(OC)c(OC)c1` (configuration not stated) here?
The Potency was inconclusive: 0.0026 µM [inhibitor, full curve, poor fit].

With `CCc1ccc(NS(=O)(=O)c2ccc(C)c(C(=O)N3CCOCC3)c2)cc1` as the molecule, how does the Potency read?
The Potency was inconclusive: 18.5 µM [inhibitor, single point].

With `CCC(=NCc1ccco1)c1c(O)n(-c2ccccc2C)c(=O)[nH]c1=O` as the molecule, how does the Potency read?
Its Potency is inconclusive: 11.7 µM [inhibitor, single point].

Which Potency does the source give for `CC(C)CCNC(=O)C(c1ccc(O)cc1)N(Cc1ccco1)C(=O)CCC(=O)Nc1nccs1` (configuration not stated) here?
The Potency was inconclusive: 14.7 µM [inhibitor, single point].

Which Potency does the source give for `CC(=O)c1ccc(Sc2ccc(C(C)=O)cc2)cc1` here?
The Potency was inconclusive: 11.7 µM [inhibitor, single point].

Which Potency does the source give for `O=C(/C=C/c1cccs1)N1CCOCC1` here?
The Potency was “inactive”.

Which Potency does the source give for `COc1ccc(-c2cccc(NC(=O)c3ccc4c(c3)OCO4)c2)nn1` here?
The Potency was inconclusive: 18.5 µM [inhibitor, partial curve, poor fit].

With `N#Cc1ccc(C(=O)N2CCN(S(=O)(=O)c3ccc(Br)s3)CC2)cc1` as the molecule, how does the Potency read?
Its Potency is inconclusive: 1.85 µM [inhibitor, partial curve].

With `CC(=O)Nc1cccc(NC(=O)c2ccc3c(c2)CCN3S(=O)(=O)c2ccccc2)c1` as the molecule, how does the Potency read?
Its Potency is inconclusive: 5.86 µM [inhibitor, partial curve].

Which Potency does the source give for `O=C1C2CC=C(Cl)CC2C(=O)N1CCc1c[nH]c2ccccc12` (configuration not stated) here?
The Potency was inconclusive: 18.5 µM [inhibitor, single point].

With `Cc1ccc2c(Cl)c(C(=O)Nc3cc(C)on3)sc2c1` as the molecule, how does the Potency read?
Its Potency is “inactive”.

For `N#Cc1c2n(c(=S)n(-c3ccc(F)cc3)c1=O)CCCCC2`, which Potency is on record?
The Potency was inconclusive: 20.8 µM [inhibitor, partial curve, poor fit].
